This is an account of results in paper doi:10.1101/2020.04.27.046102.

Chains of the proteins cited; added tags and fusions are not shown. Lines headed by an entry give the natural chain unless they say otherwise; changes in a name come on top. Residues count along the entry.
UniProt Q04206, 1-328, stated change not applied: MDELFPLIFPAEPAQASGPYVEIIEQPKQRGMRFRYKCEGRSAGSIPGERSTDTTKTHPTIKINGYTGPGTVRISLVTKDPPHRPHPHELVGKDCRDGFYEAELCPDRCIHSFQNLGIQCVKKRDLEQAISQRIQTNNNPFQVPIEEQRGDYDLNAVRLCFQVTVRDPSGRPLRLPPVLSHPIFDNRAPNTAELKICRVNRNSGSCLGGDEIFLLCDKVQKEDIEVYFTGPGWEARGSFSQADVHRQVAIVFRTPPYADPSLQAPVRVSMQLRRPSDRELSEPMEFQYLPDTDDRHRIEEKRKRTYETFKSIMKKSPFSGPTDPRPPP
UniProt Q04206, whole entry: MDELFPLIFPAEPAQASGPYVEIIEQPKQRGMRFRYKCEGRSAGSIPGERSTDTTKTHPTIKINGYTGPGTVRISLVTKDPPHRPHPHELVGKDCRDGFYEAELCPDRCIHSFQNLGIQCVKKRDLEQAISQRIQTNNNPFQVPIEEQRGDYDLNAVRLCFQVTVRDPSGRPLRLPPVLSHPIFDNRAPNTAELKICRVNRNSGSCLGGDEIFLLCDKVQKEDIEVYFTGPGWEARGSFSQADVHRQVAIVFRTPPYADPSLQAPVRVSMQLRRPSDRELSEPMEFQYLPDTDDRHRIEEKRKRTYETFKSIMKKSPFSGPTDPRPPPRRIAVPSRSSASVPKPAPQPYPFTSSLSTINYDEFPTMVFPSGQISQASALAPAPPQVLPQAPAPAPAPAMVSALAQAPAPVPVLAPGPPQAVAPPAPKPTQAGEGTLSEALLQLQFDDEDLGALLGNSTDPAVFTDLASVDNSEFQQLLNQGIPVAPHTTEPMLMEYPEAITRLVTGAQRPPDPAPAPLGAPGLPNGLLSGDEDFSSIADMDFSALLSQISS
UniProt P19838, 1-433: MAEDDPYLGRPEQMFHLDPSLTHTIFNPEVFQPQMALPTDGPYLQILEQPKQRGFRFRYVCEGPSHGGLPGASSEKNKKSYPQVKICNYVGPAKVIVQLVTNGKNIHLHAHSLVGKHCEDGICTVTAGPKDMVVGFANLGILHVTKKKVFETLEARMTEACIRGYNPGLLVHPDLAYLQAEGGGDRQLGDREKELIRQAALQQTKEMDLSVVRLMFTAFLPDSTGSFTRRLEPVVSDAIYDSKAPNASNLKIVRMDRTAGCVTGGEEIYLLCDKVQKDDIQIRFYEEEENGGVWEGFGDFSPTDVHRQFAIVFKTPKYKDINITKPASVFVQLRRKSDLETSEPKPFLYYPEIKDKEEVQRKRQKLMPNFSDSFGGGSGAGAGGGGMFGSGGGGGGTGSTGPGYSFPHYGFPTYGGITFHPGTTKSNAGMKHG
UniProt P25963, whole entry: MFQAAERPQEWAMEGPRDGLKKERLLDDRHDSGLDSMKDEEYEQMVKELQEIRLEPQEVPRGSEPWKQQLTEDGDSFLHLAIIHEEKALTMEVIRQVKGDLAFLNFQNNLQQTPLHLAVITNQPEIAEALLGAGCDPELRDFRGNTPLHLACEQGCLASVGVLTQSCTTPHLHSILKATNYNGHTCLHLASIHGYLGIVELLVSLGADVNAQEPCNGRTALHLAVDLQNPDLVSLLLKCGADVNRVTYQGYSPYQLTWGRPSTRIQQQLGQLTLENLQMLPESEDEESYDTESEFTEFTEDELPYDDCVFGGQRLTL

These are yes or no findings as the source states them, for the method shown. Binding seen in cells or lysates may run through a third protein. Some entries that bind do so weakly or less than the wild type.

Common to all, as to assay: co-IP
Assay [1] deals with RELA/p65^H86N mutant protein (HA-tagged) (human) (UniProt Q04206).
Assay [2] has as its target RELA/p65^R329X truncated mutant protein (HA-tagged) (human) (UniProt Q04206).
The target of assay [3] is RELA/p65 wild-type protein (HA-tagged RELA/p65) (human) (UniProt Q04206).

On to NF-κB1/p50 (from UniProt P19838 1-433), for which the binding result in assay [1] and in assay [2] was “binds” each time.
Consider “RELA/p65^R329X truncated mutant protein (HA-tagged) (from UniProt Q04206-1 1-328) (domain or fragment)”, for which the binding entry in assay [3] and in assay [2] was “binds” in each case.
Take “RELA/p65^H86N mutant protein (HA-tagged) (from UniProt Q04206-1 1-551)”: the binding result in assay [3] and in assay [1] was “binds” each time.
As for IκB-α (from UniProt P25963 1-317), the binding entry in assay [1] and in assay [2] was “binds” each time.
